The values below come from EP4477665A1 (AffyXell Therapeutics Co., Ltd., dated 2024).

This assay has as its target T1, human CD40L (hCD40L antigen) (human, UniProt P29965 113-261, limits assumed).
T1 sequence (looked up): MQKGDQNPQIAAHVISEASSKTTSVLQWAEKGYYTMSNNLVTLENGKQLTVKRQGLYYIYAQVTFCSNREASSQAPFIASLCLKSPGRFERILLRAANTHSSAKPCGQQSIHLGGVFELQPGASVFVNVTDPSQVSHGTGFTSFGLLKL
Put plainly: ELISA, bacterial lysate on immobilized human CD40L, anti-Myc detection.

Substitutions are numbered along the chain they refer to. No constants are given. Whether binding was seen depends on the method and setting. Some binding calls cover weakened binding; strength is not graded here.

B1: clone 253 (designed binder)
chain: MIPGGLSEAKPATPEIQEIVDKVKPQLEEKTGETYGKLEAVQYKTQVVPKSHQTNEQGTNYYIKVRAGDNKYMHLKVFKSLWNENHFSVWEDLVLTGYQVDKNKDDELTGF
Regarding B1, the binding entry is recorded as “binds”.

B2: clone 269 (designed binder)
chain: MIPGGLSEAKPATPEIQEIVDKVKPQLEEKTGETYGKLEAVQYKTQVVGQKWWQHKIGTNYYIKVRAGDNKYMHLKVFKSLHSNAWNLQHEDLVLTGYQVDKNKDDELTGF
B2: the binding entry is given as “binds”.

B3: clone 265 (designed binder)
chain: MIPGGLSEAKPATPEIQEIVDKVKPQLEEKTGETYGKLEAVQYKTQVVQVHLDNSPLGTNYYIKVRAGDNKYMHLKVFKSLQFGEIIWWEEDLVLTGYQVDKNKDDELTGF
Consider B3, for which the binding entry is given as “binds”.

B4: clone 249 (designed binder)
chain: MIPGGLSEAKPATPEIQEIVDKVKPQLEEKTGETYGKLEAVQYKTQVVSWYYPKNVLGTNYYIKVRAGDNKYMHLKVFKSLEDFIAADDDEDLVLTGYQVDKNKDDELTGF
B4: the binding entry is given as “binds”.

B5: clone 261 (designed binder)
chain: MIPGGLSEAKPATPEIQEIVDKVKPQLEEKTGETYGKLEAVQYKTQVVVDQVWSENAGTNYYIKVRAGDNKYMHLKVFKSLPYLWRKHAVEDLVLTGYQVDKNKDDELTGF
With B5, the binding result was “binds”.

B6: clone 264 (designed binder)
chain: MIPGGLSEAKPATPEIQEIVDKVKPQLEEKTGETYGKLEAVQYKTQVVSWKQWHNYLGTNYYIKVRAGDNKYMHLKVFKSLYPDGDLILYEDLVLTGYQVDKNKDDELTGF
As to B6, the binding entry is “binds”.

B7: clone 260 (designed binder)
chain: MIPGGLSEAKPATPEIQEIVDKVKPQLEEKTGETYGKLEAVQYKTQVVKGYFHTVEAGTNYYIKVRAGDNKYMHLKVFKSLTYHFRTDLNEDLVLTGYQVDKNKDDELTGF
For B7, the binding entry is recorded as “binds”.

B8: clone 229 (designed binder)
chain: MIPGGLSEAKPATPEIQEIVDKVKPQLEEKTGETYGKLEAVQYKTQVVQYKIITWWSGTNYYIKVRAGDNKYMHLKVFKSLVYKNKRGGHEDLVLTGYQVDKNKDDELTGF
B8: the binding entry is listed as “binds”.

B9: clone 230 (designed binder)
chain: MIPGGLSEAKPATPEIQEIVDKVKPQLEEKTGETYGKLEAVQYKTQVVHYYVHYNDQGTNYYIKVRAGDNKYMHLKVFKSLWGENLFAKWEDLVLTGYQVDKNKDDELTGF
With B9, the binding result is “binds”.

B10: clone 270 (designed binder)
chain: MIPGGLSEAKPATPEIQEIVDKVKPQLEEKTGETYGKLEAVQYKTQVVLDGLYHVNSGTNYYIKVRAGDNKYMHLKVFKSLFYYYRSEPTEDLVLTGYQVDKNKDDELTGF
As for B10, the binding result was “binds”.

B11: clone 231 (designed binder)
chain: MIPGGLSEAKPATPEIQEIVDKVKPQLEEKTGETYGKLEAVQYKTQVVYYQIITWWQGTNYYIKVRAGDNKYMHLKVFKSLGIRKKQQQREDLVLTGYQVDKNKDDELTGF
In the case of B11, the binding result is “binds”.

B12: clone 255 (designed binder)
chain: MIPGGLSEAKPATPEIQEIVDKVKPQLEEKTGETYGKLEAVQYKTQVVFWVGLHNQLGTNYYIKVRAGDNKYMHLKVFKSLYYNGDNTQIEDLVLTGYQVDKNKDDELTGF
Consider B12, for which the binding result was “binds”.

B13: clone 272 (designed binder)
chain: MIPGGLSEAKPATPEIQEIVDKVKPQLEEKTGETYGKLEAVQYKTQVVWEDHWNYQYGTNYYIKVRAGDNKYMHLKVFKSLELYSNQIVWEDLVLTGYQVDKNKDDELTGF
As to B13, the binding entry is “binds”.

B14: clone 275 (designed binder)
chain: MIPGGLSEAKPATPEIQEIVDKVKPQLEEKTGETYGKLEAVQYKTQVVSWIEISNQLGTNYYIKVRAGDNKYMHLKVFKSLYYGNTSILIEDLVLTGYQVDKNKDDELTGF
With B14, the binding entry is “binds”.

B15: clone 246 (designed binder)
chain: MIPGGLSEAKPATPEIQEIVDKVKPQLEEKTGETYGKLEAVQYKTQVVHIPALKVHAGTNYYIKVRAGDNKYMHLKVFKSLPYWYRHDQEEDLVLTGYQVDKNKDDELTGF
In the case of B15, the binding result is given as “binds”.

B16: clone 271 (designed binder)
chain: B15 chain with I50A, L53P, K54V, V55Q, H56A, A57I, H87P, D88N, Q89R, E90P
As to B16, the binding entry was “binds”.

B17: clone 263 (designed binder)
chain: MIPGGLSEAKPATPEIQEIVDKVKPQLEEKTGETYGKLEAVQYKTQVVTASLYWNYAGTNYYIKVRAGDNKYMHLKVFKSLFYYRGPQPVEDLVLTGYQVDKNKDDELTGF
On to B17, for which the binding result is “binds”.

B18: clone 262 (designed binder)
chain: MIPGGLSEAKPATPEIQEIVDKVKPQLEEKTGETYGKLEAVQYKTQVVLSSIWQDVAGTNYYIKVRAGDNKYMHLKVFKSLLYQFRKEPVEDLVLTGYQVDKNKDDELTGF
In the case of B18, the binding entry was “binds”.

B19: clone 256 (designed binder)
chain: MIPGGLSEAKPATPEIQEIVDKVKPQLEEKTGETYGKLEAVQYKTQVVFTQPFNEPIGTNYYIKVRAGDNKYMHLKVFKSLYWDDKVGYYEDLVLTGYQVDKNKDDELTGF
On to B19, for which the binding result is “binds”.

B20: clone 273 (designed binder)
chain: MIPGGLSEAKPATPEIQEIVDKVKPQLEEKTGETYGKLEAVQYKTQVVSWRYKSNQLGTNYYIKVRAGDNKYMHLKVFKSLYKDWVVNPPEDLVLTGYQVDKNKDDELTGF
Take B20: the binding result is on record as “binds”.

B21: clone 257 (designed binder)
chain: MIPGGLSEAKPATPEIQEIVDKVKPQLEEKTGETYGKLEAVQYKTQVVPEYQPQPKAGTNYYIKVRAGDNKYMHLKVFKSLFHFRKPQDREDLVLTGYQVDKNKDDELTGF
Take B21: the binding entry was “binds”.

B22: clone 259 (designed binder)
chain: MIPGGLSEAKPATPEIQEIVDKVKPQLEEKTGETYGKLEAVQYKTQVVHQDDVAWQSGTNYYIKVRAGDNKYMHLKVFKSLEYGWYHLPYEDLVLTGYQVDKNKDDELTGF
Turning to B22, the binding result is given as “binds”.

B23: clone 248 (designed binder)
chain: MIPGGLSEAKPATPEIQEIVDKVKPQLEEKTGETYGKLEAVQYKTQVVYDELYHEKAGTNYYIKVRAGDNKYMHLKVFKSLEYKFRNLEEDLVLTGYQVDKNKDDELTGF
With B23, the binding entry is given as “binds”.

B24: clone 247 (designed binder)
chain: MIPGGLSEAKPATPEIQEIVDKVKPQLEEKTGETYGKLEAVQYKTQVVHHAYAAVYVGTNYYIKVRAGDNKYMHLKVFKSLPYWYRKYPDEDLVLTGYQVDKNKDDELTGF
B24: the binding entry is recorded as “binds”.

B25: clone 252 (designed binder)
chain: MIPGGLSEAKPATPEIQEIVDKVKPQLEEKTGETYGKLEAVQYKTQVVWRKLLSWWKGTNYYIKVRAGDNKYMHLKVFKSLILNPKSWNFEDLVLTGYQVDKNKDDELTGF
On to B25, for which the binding result is recorded as “binds”.

B26: clone 268 (designed binder)
chain: MIPGGLSEAKPATPEIQEIVDKVKPQLEEKTGETYGKLEAVQYKTQVVGDSYWEYVSGTNYYIKVRAGDNKYMHLKVFKSLPYRWRPDHAEDLVLTGYQVDKNKDDELTGF
Regarding B26, the binding result is on record as “binds”.

B27: clone 258 (designed binder)
chain: MIPGGLSEAKPATPEIQEIVDKVKPQLEEKTGETYGKLEAVQYKTQVVNDPYFQSFSGTNYYIKVRAGDNKYMHLKVFKSLPYWYREPENEDLVLTGYQVDKNKDDELTGF
Turning to B27, the binding entry is recorded as “binds”.

B28: clone 274 (designed binder)
chain: MIPGGLSEAKPATPEIQEIVDKVKPQLEEKTGETYGKLEAVQYKTQVVRVDWWLPEVGTNYYIKVRAGDNKYMHLKVFKSLPYQYRKDPKEDLVLTGYQVDKNKDDELTGF
For B28, the binding result is “binds”.

B29: clone 251 (designed binder)
chain: MIPGGLSEAKPATPEIQEIVDKVKPQLEEKTGETYGKLEAVQYKTQVVSWVRGTNQLGTNYYIKVRAGDNKYMHLKVFKSLEPDWPDFLIEDLVLTGYQVDKNKDDELTGF
As to B29, the binding result was “binds”.

B30: clone 267 (designed binder)
chain: MIPGGLSEAKPATPEIQEIVDKVKPQLEEKTGETYGKLEAVQYKTQVVWEWALLLEYGTNYYIKVRAGDNKYMHLKVFKSLHHPWQPAKQEDLVLTGYQVDKNKDDELTGF
Take B30: the binding result is on record as “binds”.

B31: clone 266 (designed binder)
chain: MIPGGLSEAKPATPEIQEIVDKVKPQLEEKTGETYGKLEAVQYKTQVVQNNWYLSNYGTNYYIKVRAGDNKYMHLKVFKSLVEERWGLWVEDLVLTGYQVDKNKDDELTGF
As to B31, the binding result was “binds”.

B32: clone 254 (designed binder)
chain: MIPGGLSEAKPATPEIQEIVDKVKPQLEEKTGETYGKLEAVQYKTQVVNWNQIDNPLGTNYYIKVRAGDNKYMHLKVFKSLNKDWEDQIIEDLVLTGYQVDKNKDDELTGF
Turning to B32, the binding result was “binds”.

B33: clone 250 (designed binder)
chain: MIPGGLSEAKPATPEIQEIVDKVKPQLEEKTGETYGKLEAVQYKTQVVFLEWHFWEWGTNYYIKVRAGDNKYMHLKVFKSLDSQEFPSHLEDLVLTGYQVDKNKDDELTGF
As to B33, the binding entry is “binds”.
